{"source": "paper PMC12647342", "biological_target": "T1, Metastasis suppressor protein 1 (Mtss1-WT-myc, from pCMV-Mtss1-WT-myc) (mouse) (UniProt Q8R1S4)", "T1 sequence": "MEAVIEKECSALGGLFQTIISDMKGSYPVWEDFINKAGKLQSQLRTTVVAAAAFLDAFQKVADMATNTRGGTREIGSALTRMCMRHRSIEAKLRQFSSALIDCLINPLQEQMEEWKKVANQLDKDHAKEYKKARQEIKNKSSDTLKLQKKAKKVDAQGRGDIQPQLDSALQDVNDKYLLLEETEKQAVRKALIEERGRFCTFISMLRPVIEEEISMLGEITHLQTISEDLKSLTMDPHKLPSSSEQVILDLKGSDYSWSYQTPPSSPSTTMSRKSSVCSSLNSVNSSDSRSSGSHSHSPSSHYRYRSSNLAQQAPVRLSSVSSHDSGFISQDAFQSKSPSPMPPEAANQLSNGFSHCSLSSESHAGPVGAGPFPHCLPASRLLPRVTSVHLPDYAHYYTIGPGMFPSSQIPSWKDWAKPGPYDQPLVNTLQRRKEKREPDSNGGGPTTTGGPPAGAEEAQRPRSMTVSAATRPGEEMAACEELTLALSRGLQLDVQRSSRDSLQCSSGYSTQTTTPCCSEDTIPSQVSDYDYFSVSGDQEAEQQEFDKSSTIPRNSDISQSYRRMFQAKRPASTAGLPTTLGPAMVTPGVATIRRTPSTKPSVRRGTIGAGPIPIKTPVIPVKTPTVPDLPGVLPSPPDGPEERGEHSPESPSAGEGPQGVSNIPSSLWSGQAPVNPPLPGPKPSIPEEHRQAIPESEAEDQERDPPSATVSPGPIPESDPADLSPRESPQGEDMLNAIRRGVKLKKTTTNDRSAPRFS", "experiment": "co-IP; Lysate of HEK293T cells co-transfected with pCMV-PKCγ-WT-GFP and pCMV-Mtss1-WT-myc; anti-myc antibody (mouse IgG as control) cross-linked to protein A/G agarose (Pierce Crosslink IP kit); 2000 μg protein, overnight at 4 °C; acidic elution; Western blot", "note": "Results are given in words; binding and its absence hold for the method and conditions named. In cells and extracts the contact can be indirect. Some entries that bind do so weakly or less than the wild type. Tags and fused reporters may be left off the sequences shown.", "data": [{"substance": "Protein kinase C gamma (PKCγ-WT-GFP, from pCMV-PKCγ-WT-GFP) (from UniProt P63318 1-697) (enzyme)", "values": [{"measurement": "binding", "result": "binds weakly"}]}]}
